# PubChem BioAssay (EPA / NIEHS)
# Amino acid sequences for entries named in this document (tags omitted). A change or cut given only in a name is not applied to a line headed by its entry.
# UniProt Q96RI1: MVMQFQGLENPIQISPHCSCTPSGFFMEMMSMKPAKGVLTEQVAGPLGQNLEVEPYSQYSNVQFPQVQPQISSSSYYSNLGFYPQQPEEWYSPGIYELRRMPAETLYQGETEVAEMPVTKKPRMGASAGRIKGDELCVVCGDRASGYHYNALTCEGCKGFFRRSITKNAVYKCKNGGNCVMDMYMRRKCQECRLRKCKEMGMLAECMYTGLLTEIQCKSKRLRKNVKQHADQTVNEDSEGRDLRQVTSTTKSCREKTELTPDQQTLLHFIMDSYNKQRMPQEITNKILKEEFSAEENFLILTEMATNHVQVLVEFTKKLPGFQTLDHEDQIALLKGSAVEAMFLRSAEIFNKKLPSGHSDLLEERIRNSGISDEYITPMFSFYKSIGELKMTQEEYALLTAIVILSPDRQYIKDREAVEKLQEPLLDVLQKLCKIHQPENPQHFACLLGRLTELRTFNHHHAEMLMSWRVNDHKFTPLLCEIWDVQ
# Inconclusive means that the source gave no clear call. Such entries were picked first, then a sample of the others. A potency beside an inconclusive call is a rough fit, not a confirmed value. Calls of active or inactive are those of the source. The calls were made as follows: active = hit-call score of the fitted dose curve at least 0.9, where 1 is the maximum; inconclusive = response in the unintended direction; inactive = score below 0.9.
# Tests used:
# [1] = target: Bile acid receptor (Homo sapiens) (UniProt Q96RI1); experiment: OT_FXR_FXRSRC1_0480: Odyssey Thera (OT) 8-hour HEK293T Protein-Complementation Assay for Farnesoid X receptor/SRC-1 Co-activator (AID 2283383)
# Method in brief: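 HEK293T cells expressing FXR and SRC-1 fused to reporter fragments were dosed with compound for 8 h; fluorescence from the reconstituted reporter marked co-activator recruitment. Gain of signal was fitted against the DMSO baseline.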
# [2] = target: Bile acid receptor (Homo sapiens) (UniProt Q96RI1); experiment: OT_FXR_FXRSRC1_1440: Odyssey Thera (OT) 24-hour HEK293T Protein-Complementation Assay for Farnesoid X receptor/SRC-1 Co-activator (AID 2283384)
# Method in brief: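 HEK293T cells were dosed with compound and read 24 h later by fluorescence intensity from protein-fragment complementation reporting FXR/SRC-1 co-activator interaction. Gain of signal was fitted relative to DMSO negative control as baseline.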
compound,measurement,setting,value
CC(C)CCOC(=O)c1ccccc1,outcome,[1],inactive
same,AC50,[2],inconclusive: 50 µM
CC1(C)C(=O)N(Br)C(=O)N1Br,outcome,[1],inactive
c1ccc(CNc2ncnc3nc[nH]c23)cc1,AC50,[1],inconclusive: 6.05 µM
same,outcome,[2],inactive
OC[C@H]1O[C@@](CO)(O[C@H]2O[C@H](CO)[C@@H](O)[C@H](O)[C@H]2O)[C@@H](O)[C@@H]1O,AC50,[1],inconclusive: 5.12 µM
CCCCCCCCCCCCc1ccccc1,AC50,[1],inconclusive: 50 µM
same,AC50,[2],inconclusive: 50 µM
c1ccc2cc3ccccc3cc2c1,outcome,[1],inactive
O=[N+]([O-])c1ccc(O)cc1C(F)(F)F,outcome,[1],inactive
same,AC50,[2],active: 77.1 µM
O=C(O)CCC(=O)O,AC50,[1],inconclusive: 50 µM
same,AC50,[2],inconclusive: 50 µM
C=CC(C)(O)CCC=C(C)C (stereo unspecified),outcome,[1],inactive
O=C1NC(=O)C2CC=CCC12 (stereo unspecified),AC50,[1],inconclusive: 50 µM
same,outcome,[2],inactive
Cc1nc(C)nc(N2C[C@@H](C)N(c3ccnc([C@@H](C)O)n3)[C@@H](C)C2)n1,AC50,[1],inconclusive: 6.57 µM
same,AC50,[2],inconclusive: 6.65 µM
Cc1cc(F)ccc1-c1cc(N2CC[C@@H](O)[C@H]2CO)ncc1N(C)C(=O)C(C)(C)c1cc(C(F)(F)F)cc(C(F)(F)F)c1,AC50,[1],inconclusive: 72.8 µM
same,AC50,[2],inconclusive: 67.7 µM
CCOC(=O)c1ccc(N)cc1,outcome,[1],inactive
same,AC50,[2],active: 20.2 µM
O=C(O)c1ccc([N+](=O)[O-])cc1,AC50,[1],inconclusive: 50 µM
O=C(OCCOCCOC(=O)c1ccccc1)c1ccccc1,outcome,[1],inactive
Cc1[nH]cnc1C[C@H]1CCc2c(C)c3ccccc3n2C1=O,AC50,[1],inconclusive: 76.1 µM
same,AC50,[2],inconclusive: 76.5 µM

# Part of the list above, bar-delimited.
compound | measurement | setting | value
Cc1nc(C)nc(N2C[C@@H](C)N(c3ccnc([C@@H](C)O)n3)[C@@H](C)C2)n1 | AC50 | [2] | inconclusive: 6.65 µM
Cc1cc(F)ccc1-c1cc(N2CC[C@@H](O)[C@H]2CO)ncc1N(C)C(=O)C(C)(C)c1cc(C(F)(F)F)cc(C(F)(F)F)c1 | AC50 | [2] | inconclusive: 67.7 µM
